These are yes or no findings as the source states them, for the method shown. In cells and extracts the contact can be indirect. Some entries that bind do so weakly or less than the wild type.
Molecular target: Bcl-2 (human (endogenous in OCI-ly8)) (UniProt P10415)
Test: co-IP; as a1, the sample of OCI-ly8 cells treated with 2 uM BM-1197 for 6 h; IP with anti-Bcl-2 antibody, western blot

Sequences of proteins named here, by UniProt entry; tags and fusion partners are left off.
UniProt P10415: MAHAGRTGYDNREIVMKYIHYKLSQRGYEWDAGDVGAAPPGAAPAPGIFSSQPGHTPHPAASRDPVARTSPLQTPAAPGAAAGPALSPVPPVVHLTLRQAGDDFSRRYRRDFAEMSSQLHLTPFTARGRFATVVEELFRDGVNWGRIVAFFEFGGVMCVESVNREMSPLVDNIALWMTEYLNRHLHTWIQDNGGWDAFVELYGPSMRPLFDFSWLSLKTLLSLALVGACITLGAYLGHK
UniProt Q07812: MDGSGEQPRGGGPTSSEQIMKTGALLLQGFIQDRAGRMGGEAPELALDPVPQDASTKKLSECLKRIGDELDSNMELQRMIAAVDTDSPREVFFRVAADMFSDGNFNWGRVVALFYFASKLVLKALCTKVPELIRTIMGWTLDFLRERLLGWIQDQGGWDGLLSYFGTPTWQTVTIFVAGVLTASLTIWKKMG

binding: binds weakly
Substance: Bax (from UniProt Q07812 1-192)
